Drawing on PubChem BioAssay AID248 (DTP/NCI, 2004), this text covers survivor count and T/C for 26 molecules.

The list is a part of this screen's results and no random one: it gathers tests that were run many times, whatever their T/C, doses with no T/C, and many T/C values between a quarter and a half above the control. Other doses and runs of a compound stand elsewhere. T/C: endpoint of the treated group in % of that of the vehicle group. Some doses have a count of surviving animals in place of a T/C: the source holds a T/C of zero for them, seemingly a mark for toxic or unscored doses. Some survivor counts are full or nearly so, which does not show that the dose was tolerated: the source hardly ever lists a survival T/C far under the control, and the zero likely stands for such cases as well. Survivors were counted at the toxicity check, usually on the fifth day, unless a day is given; later deaths do not show. Schedules are NCI's codes, taken here to give the interval after Q, in days (D) or hours (H), and the number of doses after X. Some entries hold several experiments; the values are given in rising order. For survival time, this PubChem deposit counts one and a half times the control or more as active, and values a quarter to a half above the control carry no call in these data; other NCI protocols may use other cut-offs. Some T/C values carry the count of animals alive at the toxicity check (mostly the fifth day); where none is given, no animal had died by that day. Signs of the kind (2×) stand for listed records that agree.

The experiment deals with L1210 leukemia ip in BDF1 mice, survival T/C. Description: NCI In Vivo Anticancer Drug Screen. Data for tumor model L1210 Leukemia (intraperitoneal) in B6D2F1 (BDF1) mice. Conditions: T/C endpoint: mean survival time, higher T/C = longer survival.
The mark [1] stands for this setting: dose: 400.0 mg/kg/injection, schedule: Q04DX003 (ip), vehicle: saline.
Setting [2] is: dose: 400.0 mg/kg/injection, schedule: Q04DX003 (ip), vehicle: saline with Tween-80.
[3] abbreviates: dose: 200.0 mg/kg/injection, schedule: Q01DX009 (ip), vehicle: saline with Tween-80.
Setting [4] is: dose: 400.0 mg/kg/injection, schedule: Q01DX009 (ip), vehicle: saline with Tween-80.
Where [5] appears, read: dose: 200.0 mg/kg/injection, schedule: Q04DX002 (ip), vehicle: other.
Where [6] appears, read: dose: 400.0 mg/kg/injection, schedule: Q04DX002 (ip), vehicle: other.
Setting [7] is: dose: 200.0 mg/kg/injection, schedule: Q04DX003 (ip), vehicle: Klucel (hydroxypropylcellulose) (HPC).
[8] abbreviates: dose: 400.0 mg/kg/injection, schedule: Q04DX003 (ip), vehicle: Klucel (hydroxypropylcellulose) (HPC).

In the case of `CC1CCC(NCCOC(=O)c2ccc(N)cc2)CC1` (centres undefined), the survivor count (dose: 300.0 mg/kg/injection, schedule: Q01DX001 (ip), vehicle: other) is 0 of 6.

Turning to `c1cn2cncc2cn1`, under setting [1], the survivor count is 0 of 6.

`CN(C)CC(OCCCc1ccccc1)C(Cl)(Cl)Cl` (centres undefined): under setting [2], the survivor count was 1 of 6.

On to `CN1CCCN(C)C1`, for which the survivor count is recorded as 3 of 6 under setting [3] and 0 of 6 under setting [2].

As to `CC(C)/C(=C\c1ccccc1)C(=O)c1ccccc1`, the survivor count under setting [2] is reported as 5 of 6.

Regarding `CCCCCCCC/C=C\CCCCCCCC(=O)N1CC[N+](C)(C)CC1`, the survivor count (dose: 80.0 mg/kg/injection, schedule: Q01DX001 (ip), vehicle: saline) is listed as 0 of 6.

In the case of `Cc1cn(C2OC(CO)C(O)C2O)c2ncnc(N)c12` (centres undefined), the survivor count was 0 of 3 (dose: 25.0 mg/kg/injection, schedule: Q01DX005 (ip), vehicle: water); 0 of 3 (dose: 50.0 mg/kg/injection, schedule: Q01DX005 (ip), vehicle: water); 0 of 3 (dose: 100.0 mg/kg/injection, schedule: Q01DX005 (ip), vehicle: water); 0 of 3 (dose: 200.0 mg/kg/injection, schedule: Q01DX005 (ip), vehicle: water); 0 of 3 (dose: 400.0 mg/kg/injection, schedule: Q01DX005 (ip), vehicle: water).

As to `CC(=O)/C=C(\C)OB(F)F`, the survivor count by setting is: (dose: 200.0 mg/kg/injection, schedule: Q01DX001 (ip), vehicle: saline) 0 of 5; (dose: 400.0 mg/kg/injection, schedule: Q01DX001 (ip), vehicle: saline) 0 of 6.

On to `C=CCCCCCCCCCNc1cc2c3c(c1)CCCN3CCC2`, for which the survivor count is on record as 1 of 6 (dose: 0.78 mg/kg/injection, schedule: Q01DX009 (ip), vehicle: saline); 2 of 6 (dose: 1.56 mg/kg/injection, schedule: Q04DX003 (ip), vehicle: saline); 0 of 6 (dose: 3.12 mg/kg/injection, schedule: Q04DX003 (ip), vehicle: saline); 1 of 6 (dose: 6.25 mg/kg/injection, schedule: Q04DX003 (ip), vehicle: saline); 0 of 6 (dose: 12.5 mg/kg/injection, schedule: Q04DX003 (ip), vehicle: saline); 0 of 6 (dose: 25.0 mg/kg/injection, schedule: Q04DX003 (ip), vehicle: saline). Further, the survivor count is, setting by setting: (dose: 50.0 mg/kg/injection, schedule: Q04DX003 (ip), vehicle: saline) 0 of 6; (dose: 100.0 mg/kg/injection, schedule: Q04DX003 (ip), vehicle: alcohol) 0 of 6; (dose: 200.0 mg/kg/injection, schedule: Q04DX003 (ip), vehicle: alcohol) 0 of 6; (dose: 400.0 mg/kg/injection, schedule: Q04DX003 (ip), vehicle: alcohol) 0 of 6.

As to `CSCC1OC(n2nnc3c(N)ncnc32)C(O)C1O` (centres undefined), the survivor count (dose: 400.0 mg/kg/injection, schedule: Q01DX001 (ip), vehicle: Klucel (hydroxypropylcellulose) (HPC)) is 3 of 6.

`O=[N+]([O-])CC(NNC(C[N+](=O)[O-])C(Cl)(Cl)Cl)C(Cl)(Cl)Cl` (centres undefined): the survivor count under setting [4] is listed as 6 of 6.

As to `Cc1ccc(NC(=S)NC(=O)COc2ccccc2)cc1C`, the T/C was 98 (2×), 109, 116 % of control (dose: 100.0 mg/kg/injection, schedule: Q04DX002 (ip), vehicle: other); 90, 106, 118 % of control [5 of 6 alive] under setting [5]; 92 % of control [2 of 3 alive] under setting [6]. For the same molecule, the survivor count by setting is: under setting [5], 3 of 3; (dose: 200.0 mg/kg/injection, schedule: Q04DX003 (ip), vehicle: other) 3 of 6; (dose: 400.0 mg/kg/injection, schedule: Q01DX001 (ip), vehicle: other) 0 of 6; under setting [6], 1 of 3 and 3 of 6.

On to `CS(=O)(=O)OCCN=C(N)N[N+](=O)[O-]`, for which the survivor count by setting is: under setting [7], 1 of 6; under setting [8], 0 of 6.

As to `CC(=O)Nc1ccc(C(=O)Nc2ccc(C3=NCCN3)cc2)cc1C(=O)Nc1ccc(C2=NCCN2)cc1`, the T/C (dose: 125.0 mg/kg/injection, schedule: Q01DX015 (ip), vehicle: carboxymethylcellulose (CMC)) was 141 % of control. In addition, the survivor count (dose: 500.0 mg/kg/injection, schedule: Q01DX015 (ip), vehicle: carboxymethylcellulose (CMC)) is given as 1 of 6.

For `NNC(=O)Cc1ccc(Cl)c2ccccc12`, the survivor count under setting [8] was 5 of 6.

For `Cc1c(O)ccc(C(=O)CCl)c1O`, the survivor count is 3 of 6 (dose: 12.0 mg/kg/injection, schedule: Q01DX009 (ip), vehicle: saline with Tween-80); 2 of 6 and 5 of 6 (dose: 50.0 mg/kg/injection, schedule: Q01DX009 (ip), vehicle: saline with Tween-80); 3 of 6 (dose: 100.0 mg/kg/injection, schedule: Q01DX009 (ip), vehicle: saline with Tween-80); 3 of 6 under setting [3]; 0 of 6 under setting [4]; 1 of 6 under setting [8].

Regarding `Nc1ncnc2c1ncn2CCCCCl`, the survivor count (dose: 100.0 mg/kg/injection, schedule: Q04DX003 (ip), vehicle: saline) is recorded as 5 of 6; the survivor count (dose: 200.0 mg/kg/injection, schedule: Q04DX003 (ip), vehicle: saline) was 0 of 6; the survivor count under setting [1] was 0 of 6.

As for `CC/C=C/N1CCCCC1`, the survivor count was 1 of 6 under setting [3] and 0 of 6 under setting [4].

Regarding `CCC(C)C(C#N)(CCN1CCCCC1)Cc1cccc2ccccc12` (centres undefined), the survivor count is reported as 6 of 6 under setting [3] and 0 of 6 under setting [4].

`NC(CSP(=O)(O)O)=NCC12CC3CC(CC(C3)C1)C2`: the survivor count reads like this: (dose: 40.0 mg/kg/injection, schedule: Q04DX002 (ip), vehicle: Klucel (hydroxypropylcellulose) (HPC)) 1 of 3; (dose: 100.0 mg/kg/injection, schedule: Q04DX002 (ip), vehicle: Klucel (hydroxypropylcellulose) (HPC)) 0 of 3; (dose: 200.0 mg/kg/injection, schedule: Q04DX002 (ip), vehicle: Klucel (hydroxypropylcellulose) (HPC)) 0 of 3; (dose: 400.0 mg/kg/injection, schedule: Q04DX002 (ip), vehicle: Klucel (hydroxypropylcellulose) (HPC)) 0 of 3.

In the case of `CC(C)=C(C=O)CCC(C)C`, the survivor count under setting [4] is reported as 2 of 6.

With `c1ccc(C(c2ccccc2)[P+](c2ccccc2)(c2ccccc2)c2ccccc2)cc1`, the T/C (dose: 3.0 mg/kg/injection, schedule: Q01DX005 (ip), vehicle: gum acacia) is 126 and 129 % of control. Moreover, the survivor count reads like this: (dose: 6.0 mg/kg/injection, schedule: Q01DX005 (ip), vehicle: gum acacia) 3 of 3; (dose: 6.0 mg/kg/injection, schedule: Q01DX009 (ip), vehicle: gum acacia) 3 of 3; (dose: 12.5 mg/kg/injection, schedule: Q01DX005 (ip), vehicle: gum acacia) 3 of 3; (dose: 25.0 mg/kg/injection, schedule: Q01DX005 (ip), vehicle: gum acacia) 0 of 3; (dose: 25.0 mg/kg/injection, schedule: Q04DX002 (ip), vehicle: gum acacia) 3 of 3; (dose: 50.0 mg/kg/injection, schedule: Q04DX002 (ip), vehicle: gum acacia) 0 of 3.

For `Clc1cc(CBr)c(Cl)c(Cl)c1CBr`, the survivor count is recorded as 0 of 6 (dose: 100.0 mg/kg/injection, schedule: Q04DX003 (ip), vehicle: Klucel (hydroxypropylcellulose) (HPC)); 0 of 6 under setting [7]; 1 of 6 under setting [8].

`CC(=O)Nc1cc(N)cc(NC(C)=O)c1`: the survivor count (dose: 400.0 mg/kg/injection, schedule: Q04DX003 (ip), vehicle: water) is 4 of 6.

Consider `Cc1cccc(SC(=O)Cc2ccc([N+](=O)[O-])cc2)c1`, for which the survivor count under setting [4] is given as 2 of 6.

Regarding `CCOC(=O)CC(C)C(Br)(C(=O)OCC)C(=O)OCC` (centres undefined), under “dose: 400.0 mg/kg/injection, schedule: Q01DX009 (ip), vehicle: water”, the survivor count was 1 of 6.
